Assay results reported in the supplement of paper PMC12823440, “Inhibitors supercharge kinase turnover through native proteolytic circuits” (Nature, 2025).
The list shows a part of the results. The calls rarely recur for the same compound in another form.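 Kinases, fused to nanoluciferase, were expressed in K562 cells; luminescence was measured every 4 h from 2 to 18 h as percent of control (DMSO = 100%, positive control = 0%). A time point is decreased if signal falls significantly (2 sigma). Hits were called by the authors by a rule that is not shown; the count of time points alone does not decide it.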

Sequences of proteins named here, by UniProt entry; tags and fusion partners are left off. A change or cut given only in a name is not applied to a line headed by its entry.
UniProt P28482, whole entry: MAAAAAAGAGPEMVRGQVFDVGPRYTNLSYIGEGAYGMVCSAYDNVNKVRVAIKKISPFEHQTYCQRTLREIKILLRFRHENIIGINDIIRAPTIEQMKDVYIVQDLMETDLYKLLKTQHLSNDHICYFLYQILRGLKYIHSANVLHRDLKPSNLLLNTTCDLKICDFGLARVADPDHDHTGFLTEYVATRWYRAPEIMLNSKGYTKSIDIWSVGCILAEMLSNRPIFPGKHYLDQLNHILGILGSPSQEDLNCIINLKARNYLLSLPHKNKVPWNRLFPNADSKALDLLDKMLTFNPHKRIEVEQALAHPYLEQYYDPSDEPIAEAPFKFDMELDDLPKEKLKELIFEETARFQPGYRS
UniProt P31152, whole entry: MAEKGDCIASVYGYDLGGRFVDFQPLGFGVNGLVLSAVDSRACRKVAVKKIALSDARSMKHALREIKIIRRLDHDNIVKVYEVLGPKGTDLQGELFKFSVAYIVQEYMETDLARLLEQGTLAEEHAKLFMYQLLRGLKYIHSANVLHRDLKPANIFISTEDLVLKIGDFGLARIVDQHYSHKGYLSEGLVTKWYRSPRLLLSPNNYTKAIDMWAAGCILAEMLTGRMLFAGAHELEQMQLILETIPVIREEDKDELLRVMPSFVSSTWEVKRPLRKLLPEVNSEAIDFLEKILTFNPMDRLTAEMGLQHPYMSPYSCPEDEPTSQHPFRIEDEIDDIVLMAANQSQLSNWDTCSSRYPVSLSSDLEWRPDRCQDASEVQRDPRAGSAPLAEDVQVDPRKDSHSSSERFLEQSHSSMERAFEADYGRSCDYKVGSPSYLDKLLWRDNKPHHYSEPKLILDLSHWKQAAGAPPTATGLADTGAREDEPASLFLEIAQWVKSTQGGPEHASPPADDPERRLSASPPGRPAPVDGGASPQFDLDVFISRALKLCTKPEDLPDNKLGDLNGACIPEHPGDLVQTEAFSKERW
UniProt O96013: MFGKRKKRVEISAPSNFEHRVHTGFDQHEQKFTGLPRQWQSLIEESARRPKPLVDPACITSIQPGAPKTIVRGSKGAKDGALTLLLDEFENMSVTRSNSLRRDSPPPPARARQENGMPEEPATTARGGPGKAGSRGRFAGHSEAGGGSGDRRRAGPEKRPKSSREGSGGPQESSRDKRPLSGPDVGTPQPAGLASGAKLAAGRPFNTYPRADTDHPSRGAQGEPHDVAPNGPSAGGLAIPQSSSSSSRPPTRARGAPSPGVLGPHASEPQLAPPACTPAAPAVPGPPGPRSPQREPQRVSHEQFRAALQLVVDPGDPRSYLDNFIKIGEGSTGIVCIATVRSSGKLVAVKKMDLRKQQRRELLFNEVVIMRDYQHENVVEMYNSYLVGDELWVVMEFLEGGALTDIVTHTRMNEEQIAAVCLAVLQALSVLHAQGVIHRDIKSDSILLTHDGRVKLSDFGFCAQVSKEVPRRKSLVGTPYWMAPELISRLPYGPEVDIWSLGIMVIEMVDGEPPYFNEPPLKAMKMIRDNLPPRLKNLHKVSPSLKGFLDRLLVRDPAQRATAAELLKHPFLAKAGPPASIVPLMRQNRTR
UniProt Q96KB5: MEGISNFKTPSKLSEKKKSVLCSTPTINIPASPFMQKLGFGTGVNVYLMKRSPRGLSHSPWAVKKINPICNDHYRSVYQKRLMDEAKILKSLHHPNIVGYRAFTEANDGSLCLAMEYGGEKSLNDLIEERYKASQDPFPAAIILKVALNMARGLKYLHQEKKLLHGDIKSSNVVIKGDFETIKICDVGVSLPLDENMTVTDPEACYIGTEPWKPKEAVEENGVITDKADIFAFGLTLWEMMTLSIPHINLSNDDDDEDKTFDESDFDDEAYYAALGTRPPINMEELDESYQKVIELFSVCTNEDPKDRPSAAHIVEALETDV
UniProt P42356, whole entry, looked up: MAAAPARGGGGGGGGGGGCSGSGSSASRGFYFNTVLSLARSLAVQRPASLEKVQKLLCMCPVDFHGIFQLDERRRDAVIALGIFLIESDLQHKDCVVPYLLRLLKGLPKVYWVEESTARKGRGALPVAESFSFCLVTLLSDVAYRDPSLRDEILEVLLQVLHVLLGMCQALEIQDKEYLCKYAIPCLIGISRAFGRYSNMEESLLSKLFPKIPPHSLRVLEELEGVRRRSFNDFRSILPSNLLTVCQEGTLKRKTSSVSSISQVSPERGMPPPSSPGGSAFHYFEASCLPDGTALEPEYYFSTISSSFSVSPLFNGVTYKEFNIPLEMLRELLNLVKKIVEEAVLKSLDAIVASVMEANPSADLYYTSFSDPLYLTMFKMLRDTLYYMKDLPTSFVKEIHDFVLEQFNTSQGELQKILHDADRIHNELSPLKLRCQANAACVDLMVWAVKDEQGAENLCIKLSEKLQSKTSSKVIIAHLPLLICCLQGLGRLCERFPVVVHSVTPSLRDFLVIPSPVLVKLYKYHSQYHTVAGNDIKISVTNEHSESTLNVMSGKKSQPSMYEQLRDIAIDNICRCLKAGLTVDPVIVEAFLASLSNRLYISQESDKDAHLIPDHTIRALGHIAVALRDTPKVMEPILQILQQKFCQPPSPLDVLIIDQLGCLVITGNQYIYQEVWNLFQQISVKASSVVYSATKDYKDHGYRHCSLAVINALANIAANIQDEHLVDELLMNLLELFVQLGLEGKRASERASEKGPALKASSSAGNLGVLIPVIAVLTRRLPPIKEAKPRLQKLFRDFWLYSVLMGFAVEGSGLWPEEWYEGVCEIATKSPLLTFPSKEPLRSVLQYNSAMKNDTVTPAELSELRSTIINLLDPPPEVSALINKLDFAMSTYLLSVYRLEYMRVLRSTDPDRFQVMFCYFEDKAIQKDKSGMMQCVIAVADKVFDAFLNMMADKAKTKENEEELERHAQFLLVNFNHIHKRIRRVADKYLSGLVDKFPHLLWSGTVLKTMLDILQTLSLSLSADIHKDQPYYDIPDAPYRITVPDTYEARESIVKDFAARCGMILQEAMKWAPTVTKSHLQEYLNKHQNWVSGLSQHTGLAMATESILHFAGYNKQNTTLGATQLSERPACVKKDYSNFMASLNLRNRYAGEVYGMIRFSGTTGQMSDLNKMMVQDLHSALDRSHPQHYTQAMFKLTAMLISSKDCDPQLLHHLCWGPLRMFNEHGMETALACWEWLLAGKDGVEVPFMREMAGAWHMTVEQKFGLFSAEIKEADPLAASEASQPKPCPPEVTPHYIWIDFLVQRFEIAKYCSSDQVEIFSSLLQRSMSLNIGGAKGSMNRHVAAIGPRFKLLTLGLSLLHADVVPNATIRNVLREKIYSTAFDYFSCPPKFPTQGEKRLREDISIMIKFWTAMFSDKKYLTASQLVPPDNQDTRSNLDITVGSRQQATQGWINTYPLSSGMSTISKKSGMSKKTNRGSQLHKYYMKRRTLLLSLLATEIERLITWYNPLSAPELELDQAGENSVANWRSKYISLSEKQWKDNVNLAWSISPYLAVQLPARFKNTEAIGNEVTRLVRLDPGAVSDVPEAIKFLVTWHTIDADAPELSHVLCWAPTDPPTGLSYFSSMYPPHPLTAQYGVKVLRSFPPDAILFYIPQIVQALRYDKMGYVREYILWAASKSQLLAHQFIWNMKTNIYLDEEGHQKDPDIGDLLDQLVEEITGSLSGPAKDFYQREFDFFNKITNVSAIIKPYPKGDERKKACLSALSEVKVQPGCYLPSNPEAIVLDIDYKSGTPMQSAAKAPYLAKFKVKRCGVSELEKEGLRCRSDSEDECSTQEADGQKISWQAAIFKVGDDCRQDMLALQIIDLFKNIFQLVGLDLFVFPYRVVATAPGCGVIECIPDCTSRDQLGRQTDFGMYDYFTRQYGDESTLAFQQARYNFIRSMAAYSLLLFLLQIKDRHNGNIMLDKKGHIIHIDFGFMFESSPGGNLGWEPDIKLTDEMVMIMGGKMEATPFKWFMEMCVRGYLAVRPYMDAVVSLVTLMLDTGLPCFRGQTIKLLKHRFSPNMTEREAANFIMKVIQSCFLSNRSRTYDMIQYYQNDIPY
UniProt Q9UBF8: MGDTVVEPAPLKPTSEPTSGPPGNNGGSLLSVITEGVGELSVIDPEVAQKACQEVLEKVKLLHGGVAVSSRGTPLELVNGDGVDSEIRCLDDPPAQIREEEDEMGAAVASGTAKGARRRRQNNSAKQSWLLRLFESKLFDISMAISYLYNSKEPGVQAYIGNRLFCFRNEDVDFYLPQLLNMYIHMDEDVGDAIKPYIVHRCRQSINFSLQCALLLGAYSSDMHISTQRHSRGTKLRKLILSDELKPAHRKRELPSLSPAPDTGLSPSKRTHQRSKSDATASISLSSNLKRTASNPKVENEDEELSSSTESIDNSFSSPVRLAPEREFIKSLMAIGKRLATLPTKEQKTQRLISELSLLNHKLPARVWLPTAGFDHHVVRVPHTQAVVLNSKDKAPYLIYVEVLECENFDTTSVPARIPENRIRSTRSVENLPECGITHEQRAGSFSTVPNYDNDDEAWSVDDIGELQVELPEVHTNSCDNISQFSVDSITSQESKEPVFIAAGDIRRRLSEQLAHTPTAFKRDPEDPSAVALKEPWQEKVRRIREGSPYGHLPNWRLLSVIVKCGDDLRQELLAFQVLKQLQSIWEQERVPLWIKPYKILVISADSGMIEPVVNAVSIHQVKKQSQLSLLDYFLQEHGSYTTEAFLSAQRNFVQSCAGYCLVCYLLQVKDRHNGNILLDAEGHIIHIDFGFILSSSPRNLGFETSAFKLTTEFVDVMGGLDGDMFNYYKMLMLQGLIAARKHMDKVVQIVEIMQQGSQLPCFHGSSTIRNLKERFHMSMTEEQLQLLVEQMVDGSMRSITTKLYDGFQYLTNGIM
UniProt Q13131: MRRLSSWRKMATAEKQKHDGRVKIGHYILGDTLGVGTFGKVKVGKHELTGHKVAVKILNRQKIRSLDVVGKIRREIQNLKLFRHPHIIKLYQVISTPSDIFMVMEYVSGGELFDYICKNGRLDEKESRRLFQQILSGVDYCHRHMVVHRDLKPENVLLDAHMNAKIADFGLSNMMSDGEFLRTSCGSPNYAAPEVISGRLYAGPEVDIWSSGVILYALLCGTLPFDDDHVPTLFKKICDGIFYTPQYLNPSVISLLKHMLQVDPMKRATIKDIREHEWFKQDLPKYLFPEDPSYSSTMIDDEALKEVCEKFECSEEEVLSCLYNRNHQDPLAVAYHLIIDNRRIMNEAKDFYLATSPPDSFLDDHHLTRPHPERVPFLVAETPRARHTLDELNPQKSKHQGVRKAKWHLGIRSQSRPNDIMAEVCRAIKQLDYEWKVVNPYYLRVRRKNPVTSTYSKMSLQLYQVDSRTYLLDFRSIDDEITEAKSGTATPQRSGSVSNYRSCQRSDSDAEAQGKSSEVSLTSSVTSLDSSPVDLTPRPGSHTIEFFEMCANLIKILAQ
UniProt Q14289, whole entry, looked up: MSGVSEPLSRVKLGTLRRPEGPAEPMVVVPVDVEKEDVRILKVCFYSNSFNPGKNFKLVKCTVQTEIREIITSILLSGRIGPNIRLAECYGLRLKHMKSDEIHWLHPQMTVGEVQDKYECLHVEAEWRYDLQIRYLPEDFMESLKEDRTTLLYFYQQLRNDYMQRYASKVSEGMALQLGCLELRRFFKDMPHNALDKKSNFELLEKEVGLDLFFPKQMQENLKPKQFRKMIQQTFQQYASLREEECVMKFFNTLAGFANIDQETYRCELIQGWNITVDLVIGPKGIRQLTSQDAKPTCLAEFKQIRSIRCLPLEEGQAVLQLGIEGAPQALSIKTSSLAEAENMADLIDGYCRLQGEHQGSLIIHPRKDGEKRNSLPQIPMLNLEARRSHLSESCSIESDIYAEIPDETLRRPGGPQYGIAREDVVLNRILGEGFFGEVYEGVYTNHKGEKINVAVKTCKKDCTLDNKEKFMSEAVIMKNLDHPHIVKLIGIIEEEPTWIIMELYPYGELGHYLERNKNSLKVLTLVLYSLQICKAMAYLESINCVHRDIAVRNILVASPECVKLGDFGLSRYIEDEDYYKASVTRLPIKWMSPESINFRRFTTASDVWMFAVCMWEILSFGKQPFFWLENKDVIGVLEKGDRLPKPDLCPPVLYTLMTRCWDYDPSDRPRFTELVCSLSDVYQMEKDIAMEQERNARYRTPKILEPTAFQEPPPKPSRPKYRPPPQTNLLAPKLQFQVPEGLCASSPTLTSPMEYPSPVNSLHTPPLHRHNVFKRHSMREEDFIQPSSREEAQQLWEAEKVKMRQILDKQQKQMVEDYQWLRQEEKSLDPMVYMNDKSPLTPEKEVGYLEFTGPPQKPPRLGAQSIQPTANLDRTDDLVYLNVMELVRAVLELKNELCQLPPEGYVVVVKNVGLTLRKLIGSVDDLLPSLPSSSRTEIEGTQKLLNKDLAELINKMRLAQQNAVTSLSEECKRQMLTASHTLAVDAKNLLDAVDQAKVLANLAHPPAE

What was measured:
Assay in all cases: kinase-Nluc reporter destabilization hit call (1 = scored as downregulated) (binary); higher = compound decreases kinase abundance
Settings in all cases: K562; 2-18 h
MAPK1 = MAPK1 (UniProt P28482)
MAPK4 = MAPK4 (UniProt P31152)
MAPKAPK2 = MAPKAPK2 (UniProt P49137)
MKNK1 = MKNK1 (UniProt Q9BUB5)
NTRK2 = NTRK2 (UniProt Q16620)
NTRK3 = NTRK3 (UniProt Q16288)
PAK4 = PAK4 (UniProt O96013)
PBK = PBK (UniProt Q96KB5)
PDK1 = PDK1 (UniProt Q15118)
PDPK1 = PDPK1 (UniProt O15530)
PIK4CA = PIK4CA (UniProt P42356)
PIK4CB = PIK4CB (UniProt Q9UBF8)
PLK1 = PLK1 (UniProt P53350)
PRKAA1 = PRKAA1 (UniProt Q13131)
PRKCA = PRKCA (UniProt P17252)
PTK2 = PTK2 (UniProt Q05397)
PTK2B = PTK2B (UniProt Q14289)
RAF1 = RAF1 (UniProt P04049)
[1] = biological target: RAF1_S257L (clone: RAF1_mut) (UniProt P04049)
PDGFRB = PDGFRB (UniProt P09619)

SMILES	kinase-Nluc reporter destabilization hit call (MAPK1)	kinase-Nluc reporter destabilization hit call (MAPK4)	kinase-Nluc reporter destabilization hit call (MAPKAPK2)	kinase-Nluc reporter destabilization hit call (MKNK1)	kinase-Nluc reporter destabilization hit call (NTRK2)	kinase-Nluc reporter destabilization hit call (NTRK3)	kinase-Nluc reporter destabilization hit call (PAK4)	kinase-Nluc reporter destabilization hit call (PBK)	kinase-Nluc reporter destabilization hit call (PDK1)	kinase-Nluc reporter destabilization hit call (PDPK1)	kinase-Nluc reporter destabilization hit call (PIK4CA)	kinase-Nluc reporter destabilization hit call (PIK4CB)	kinase-Nluc reporter destabilization hit call (PLK1)	kinase-Nluc reporter destabilization hit call (PRKAA1)	kinase-Nluc reporter destabilization hit call (PRKCA)	kinase-Nluc reporter destabilization hit call (PTK2)	kinase-Nluc reporter destabilization hit call (PTK2B)	kinase-Nluc reporter destabilization hit call (RAF1)	kinase-Nluc reporter destabilization hit call [1]	kinase-Nluc reporter destabilization hit call (PDGFRB)
COc1ccc2c(NC(=O)Nc3cccc(C(F)(F)F)n3)ccnc2c1 (10 µM)	inactive: 0	inactive: 0	inactive: 0	inactive: 0	inactive: 0	inactive: 0	inactive: 0	inactive: 0	inactive: 0	inactive: 0	inactive: 0	inactive: 0	inactive: 0	inactive: 0	inactive: 0	inactive: 0	inactive: 0	inactive: 0	inactive: 0	–
CCCn1cnc2c(NCc3ccccc3)nc(NC(CC)CO)nc21 (stereo not given) [Ca2+ channel agonist 1] (2.5 µM)	inactive: 0	inactive: 0	inactive: 0	inactive: 0	inactive: 0	inactive: 0	inactive: 0	inactive: 0	inactive: 0	inactive: 0	inactive: 0	inactive: 0	inactive: 0	inactive: 0	inactive: 0	inactive: 0	inactive: 0	inactive: 0	inactive: 0	inactive: 0
CN(C)C(=O)/C(C#N)=C/c1ccc(-c2nc3cnc4[nH]ccc4c3n2C2CCCCC2)o1 (10 µM)	inactive: 0	inactive: 0	inactive: 0	inactive: 0	inactive: 0	inactive: 0	inactive: 0	inactive: 0	inactive: 0	inactive: 0	inactive: 0	inactive: 0	inactive: 0	inactive: 0	inactive: 0	inactive: 0	–	inactive: 0	inactive: 0	inactive: 0
COc1cc(F)cc([C@@H](CO)NC(=O)[C@@H](C)N2Cc3ccc(-c4nc(NC5CCOCC5)ncc4Cl)cc3C2=O)c1 [ERK1/2 inhibitor 2] (10 µM)	–	inactive: 0	inactive: 0	inactive: 0	inactive: 0	inactive: 0	inactive: 0	inactive: 0	inactive: 0	inactive: 0	inactive: 0	inactive: 0	inactive: 0	inactive: 0	inactive: 0	inactive: 0	inactive: 0	inactive: 0	inactive: 0	inactive: 0
COc1cc(C(=O)NC2CCN(C)CC2)ccc1Nc1ncc2c(n1)N(C1CCCC1)CC(F)(F)C(=O)N2C (10 µM)	inactive: 0	inactive: 0	inactive: 0	inactive: 0	inactive: 0	inactive: 0	inactive: 0	inactive: 0	inactive: 0	inactive: 0	inactive: 0	inactive: 0	–	inactive: 0	inactive: 0	inactive: 0	inactive: 0	inactive: 0	inactive: 0	inactive: 0
Cc1c(Cn2c(C)nc3c(C(=O)O)cc(N4CCOCC4)cc32)cccc1C(F)(F)F (10 µM)	inactive: 0	inactive: 0	–	inactive: 0	inactive: 0	inactive: 0	inactive: 0	inactive: 0	–	inactive: 0	inactive: 0	inactive: 0	inactive: 0	–	inactive: 0	inactive: 0	inactive: 0	inactive: 0	–	inactive: 0
Cn1c(=O)n(-c2ccc(C(C)(C)C#N)cc2)c2c3cc(-c4cnc5ccccc5c4)ccc3ncc21 [Dactolisib (Tosylate)] (10 µM)	inactive: 0	inactive: 0	inactive: 0	inactive: 0	inactive: 0	inactive: 0	inactive: 0	inactive: 0	inactive: 0	inactive: 0	active: 1	inactive: 0	inactive: 0	inactive: 0	inactive: 0	inactive: 0	inactive: 0	inactive: 0	inactive: 0	–
Cc1ccc(F)c(NC(=O)Nc2ccc(-c3cccc4[nH]nc(N)c34)cc2)c1 [Linifanib] (2.5 µM)	inactive: 0	inactive: 0	inactive: 0	inactive: 0	inactive: 0	–	inactive: 0	inactive: 0	inactive: 0	inactive: 0	inactive: 0	inactive: 0	inactive: 0	inactive: 0	inactive: 0	active: 1	inactive: 0	inactive: 0	inactive: 0	inactive: 0
CN1CCN(c2ccc(C(=O)Nc3n[nH]c4ccc(Cc5cc(F)cc(F)c5)cc34)c(NC3CCOCC3)c2)CC1 [Entrectinib] (2.5 µM)	inactive: 0	inactive: 0	inactive: 0	inactive: 0	inactive: 0	inactive: 0	inactive: 0	inactive: 0	inactive: 0	inactive: 0	inactive: 0	inactive: 0	inactive: 0	inactive: 0	inactive: 0	inactive: 0	inactive: 0	inactive: 0	inactive: 0	–
COc1ccc(COc2ccc(Cc3cnc(N)nc3N)cc2OC)cc1 (10 µM)	inactive: 0	inactive: 0	inactive: 0	inactive: 0	inactive: 0	–	inactive: 0	inactive: 0	inactive: 0	inactive: 0	inactive: 0	inactive: 0	inactive: 0	inactive: 0	inactive: 0	inactive: 0	inactive: 0	inactive: 0	inactive: 0	inactive: 0
CC(C)(C)c1cc(NC(=O)Nc2ccc(-c3cn4c(n3)sc3cc(OCCN5CCOCC5)ccc34)cc2)no1 [Quizartinib] (10 µM)	inactive: 0	inactive: 0	inactive: 0	inactive: 0	–	–	inactive: 0	inactive: 0	inactive: 0	inactive: 0	inactive: 0	inactive: 0	inactive: 0	inactive: 0	inactive: 0	inactive: 0	inactive: 0	inactive: 0	inactive: 0	active: 1
Cc1ccc(S(=O)(=O)Nc2nc3ccccc3nc2Nc2ccc3nsnc3c2)cc1 [Pilaralisib analogue] (10 µM)	inactive: 0	inactive: 0	inactive: 0	–	inactive: 0	inactive: 0	inactive: 0	inactive: 0	inactive: 0	–	inactive: 0	inactive: 0	inactive: 0	–	inactive: 0	active: 1	inactive: 0	inactive: 0	inactive: 0	inactive: 0
COc1cc2c(Nc3ccc(Br)cc3F)ncnc2cc1OCCn1ccnn1 (10 µM)	inactive: 0	inactive: 0	inactive: 0	inactive: 0	inactive: 0	inactive: 0	inactive: 0	inactive: 0	inactive: 0	inactive: 0	inactive: 0	inactive: 0	inactive: 0	inactive: 0	inactive: 0	inactive: 0	inactive: 0	inactive: 0	inactive: 0	–
Cc1ccc2c(Nc3cccc(OC(F)(F)F)c3)nccc2c1Nc1ncccc1-c1ncnc2[nH]cnc12 (10 µM)	inactive: 0	inactive: 0	inactive: 0	inactive: 0	inactive: 0	inactive: 0	inactive: 0	inactive: 0	inactive: 0	inactive: 0	inactive: 0	inactive: 0	inactive: 0	inactive: 0	inactive: 0	inactive: 0	inactive: 0	–	inactive: 0	–
O=c1oc2c(O)c(O)cc3c(=O)oc4c(O)c(O)cc1c4c23 [Ellagic acid] (10 µM)	inactive: 0	inactive: 0	inactive: 0	inactive: 0	inactive: 0	inactive: 0	inactive: 0	inactive: 0	inactive: 0	inactive: 0	inactive: 0	inactive: 0	inactive: 0	inactive: 0	inactive: 0	inactive: 0	inactive: 0	inactive: 0	inactive: 0	–
COc1cc(OC)cc(-c2cc3cnc(N)nc3nc2NC(=O)NC(C)(C)C)c1 (10 µM)	inactive: 0	inactive: 0	inactive: 0	inactive: 0	inactive: 0	inactive: 0	inactive: 0	inactive: 0	inactive: 0	inactive: 0	inactive: 0	inactive: 0	inactive: 0	inactive: 0	inactive: 0	inactive: 0	inactive: 0	inactive: 0	inactive: 0	–
CCc1nc(-c2cccc(C)c2)c(-c2ccnc(NC(=O)c3ccccc3)c2)s1 (10 µM)	inactive: 0	inactive: 0	inactive: 0	inactive: 0	inactive: 0	inactive: 0	inactive: 0	inactive: 0	inactive: 0	inactive: 0	inactive: 0	inactive: 0	inactive: 0	inactive: 0	inactive: 0	inactive: 0	–	inactive: 0	inactive: 0	inactive: 0
CN1CCN(C2CCN(C(=O)Nc3cc(Oc4ccc(NC(=O)C5(C(=O)Nc6ccc(F)cc6)CC5)c(F)c4)ccn3)CC2)CC1 [Golvatinib] (2.5 µM)	inactive: 0	inactive: 0	inactive: 0	inactive: 0	–	inactive: 0	inactive: 0	inactive: 0	inactive: 0	inactive: 0	inactive: 0	inactive: 0	inactive: 0	inactive: 0	inactive: 0	inactive: 0	inactive: 0	inactive: 0	inactive: 0	inactive: 0
CNC(=O)c1cc(Oc2ccc(NC(=O)Nc3cc(C(C)(C)C)nn3-c3ccc4ncccc4c3)c(F)c2)ccn1 [Rebastinib] (2.5 µM)	inactive: 0	inactive: 0	inactive: 0	inactive: 0	–	inactive: 0	inactive: 0	inactive: 0	inactive: 0	inactive: 0	inactive: 0	inactive: 0	inactive: 0	inactive: 0	inactive: 0	inactive: 0	inactive: 0	inactive: 0	inactive: 0	inactive: 0
CCOc1ccn(-c2ccc(F)cc2)c(=O)c1C(=O)Nc1ccc(Oc2ccnc(N)c2Cl)c(F)c1 (10 µM)	inactive: 0	inactive: 0	inactive: 0	inactive: 0	inactive: 0	inactive: 0	inactive: 0	inactive: 0	inactive: 0	inactive: 0	inactive: 0	inactive: 0	inactive: 0	inactive: 0	inactive: 0	inactive: 0	inactive: 0	inactive: 0	inactive: 0	inactive: 0

2 of the compounds above, in CSV form:
SMILES,kinase-Nluc reporter destabilization hit call (MAPK1),kinase-Nluc reporter destabilization hit call (MAPK4),kinase-Nluc reporter destabilization hit call (MAPKAPK2),kinase-Nluc reporter destabilization hit call (MKNK1),kinase-Nluc reporter destabilization hit call (NTRK2),kinase-Nluc reporter destabilization hit call (NTRK3),kinase-Nluc reporter destabilization hit call (PAK4),kinase-Nluc reporter destabilization hit call (PBK),kinase-Nluc reporter destabilization hit call (PDK1),kinase-Nluc reporter destabilization hit call (PDPK1),kinase-Nluc reporter destabilization hit call (PIK4CA),kinase-Nluc reporter destabilization hit call (PIK4CB),kinase-Nluc reporter destabilization hit call (PLK1),kinase-Nluc reporter destabilization hit call (PRKAA1),kinase-Nluc reporter destabilization hit call (PRKCA),kinase-Nluc reporter destabilization hit call (PTK2),kinase-Nluc reporter destabilization hit call (PTK2B),kinase-Nluc reporter destabilization hit call (RAF1),kinase-Nluc reporter destabilization hit call [1],kinase-Nluc reporter destabilization hit call (PDGFRB)
COc1ccc2c(NC(=O)Nc3cccc(C(F)(F)F)n3)ccnc2c1 (10 µM),inactive: 0,inactive: 0,inactive: 0,inactive: 0,inactive: 0,inactive: 0,inactive: 0,inactive: 0,inactive: 0,inactive: 0,inactive: 0,inactive: 0,inactive: 0,inactive: 0,inactive: 0,inactive: 0,inactive: 0,inactive: 0,inactive: 0,–
CN1CCN(c2ccc(C(=O)Nc3n[nH]c4ccc(Cc5cc(F)cc(F)c5)cc34)c(NC3CCOCC3)c2)CC1 [Entrectinib] (2.5 µM),inactive: 0,inactive: 0,inactive: 0,inactive: 0,inactive: 0,inactive: 0,inactive: 0,inactive: 0,inactive: 0,inactive: 0,inactive: 0,inactive: 0,inactive: 0,inactive: 0,inactive: 0,inactive: 0,inactive: 0,inactive: 0,inactive: 0,–
